This is an account of results in patent US11925695B2, “Methods for making ultrasound contrast agents” (Lantheus Medical Imaging, Inc., priority 2016, dated 2024).

The data set in a line: Calcium and magnesium level in individual lipid, lipid blend and solvent by ICP-MS. It is filed as physicochemical. Particulars: Determined by ICP-MS, ppm = μg/g.

Consider `CCCCCCCCCCCCCCCC(=O)OC[C@H](COP(=O)(O)O)OC(=O)CCCCCCCCCCCCCCC` [DPPA, 1,2-dipalmitoyl-sn-glycero-3-phosphatidic acid], for which the “Ca^+2 level” value worked out at 19 ppm.
For `CCCCCCCCCCCCCCCC(=O)OC[C@H](COP(=O)([O-])OCC[N+](C)(C)C)OC(=O)CCCCCCCCCCCCCCC` [DPPC Lot 1, 1,2-dipalmitoyl-sn-glycero-3-phosphatidylcholine], the “Ca^+2 level” value is recorded as “Not detected” and the “Mg^+2 level” value is recorded as “Not detected”.
For the compound `CCCCCCCCCCCCCCCC(=O)OC[C@H](COP(=O)([O-])OCC[N+](C)(C)C)OC(=O)CCCCCCCCCCCCCCC` [DPPC Lot 2, 1,2-dipalmitoyl-sn-glycero-3-phosphatidylcholine], the “Ca^+2 level” value was 7 ppm.
As for `OCC(O)CO` [Glycerol, glycerol], the “Ca^+2 level” value stood at 0.7 ppm.
With `CC(O)CO` (centres unmarked) [Propylene glycol, propylene glycol], the “Ca^+2 level” value is “Not detected”.
Turning to “N-(methoxy polyethylene glycol 5000 carbamoyl)-1,2-dipalmitoyl-sn-glycero-3-phosphatidylethanolamine, mono sodium salt [MPEG5000-DPPE (high Ca^+2) Lot 1]”, under “mono sodium salt”, the “Ca^+2 level” value turned out to be 980 ppm and the “Mg^+2 level” value is recorded as 150 ppm.
“N-(methoxy polyethylene glycol 5000 carbamoyl)-1,2-dipalmitoyl-sn-glycero-3-phosphatidylethanolamine, mono sodium salt [MPEG5000-DPPE (high Ca^+2) Lot 2]”: where the note is “mono sodium salt”, the “Ca^+2 level” value is listed as 520 ppm and the “Mg^+2 level” value was determined as 110 ppm.
Regarding “N-(methoxy polyethylene glycol 5000 carbamoyl)-1,2-dipalmitoyl-sn-glycero-3-phosphatidylethanolamine, mono sodium salt [MPEG5000-DPPE (low Ca^+2)]”, for the setting “mono sodium salt”, the “Ca^+2 level” value amounted to 4 ppm.
